Patent US20250283871A1, “COMPOSITIONS AND METHODS FOR MODULATING THE INTERACTION BETWEEN SS18-SSX FUSION ONCOPROTEIN AND NUCLEOSOMES” (Dana-Farber Cancer Institute, Inc., priority 2020, published 2025)

B1: RRP8 (protein, UniProt O43159 1-456, looked up)
Ribosomal RNA-processing …: MFEEPEWAEAAPVAAGLGPVISRPPPAASSQNKGSKRRQLLATLRALEAASLSQHPPSLCISDSEEEEEERKKKCPKKASFASASAEVGKKGKKKCQKQGPPCSDSEEEVERKKKCHKQALVGSDSAEDEKRKRKCQKHAPINSAQHLDNVDQTGPKAWKGSTTNDPPKQSPGSTSPKPPHTLSRKQWRNRQKNKRRCKNKFQPPQVPDQAPAEAPTEKTEVSPVPRTDSHEARAGALRARMAQRLDGARFRYLNEQLYSGPSSAAQRLFQEDPEAFLLYHRGFQSQVKKWPLQPVDRIARDLRQRPASLVVADFGCGDCRLASSIRNPVHCFDLASLDPRVTVCDMAQVPLEDESVDVAVFCLSLMGTNIRDFLEEANRVLKPGGLLKVAEVSSRFEDVRTFLRAVTKLGFKIVSKDLTNSHFFLFDFQKTGPPLVGPKAQLSGLQLQPCLYKRR
B2: FARP2 (protein, UniProt O94887 1-1054, looked up)
FERM, ARHGEF and pleckstrin …: MGEIEGTYRVLQTAGMRLGAQTPVGVSTLEPGQTLLPRMQEKHLHLRVKLLDNTMEIFDIEPKCDGQVLLTQVWKRLNLVECDYFGMEFQNTQSYWIWLEPMKPIIRQIRRPKNVVLRLAVKFFPPDPGQLQEEYTRYLFALQLKRDLLEERLTCADTTAALLTSHLLQSEIGDYDETLDREHLKVNEYLPGQQHCLEKILEFHQKHVGQTPAESDFQVLEIARKLEMYGIRFHMASDREGTKIQLAVSHMGVLVFQGTTKINTFNWSKVRKLSFKRKRFLIKLHPEVHGPYQDTLEFLLGSRDECKNFWKICVEYHTFFRLLDQPKPKAKAVFFSRGSSFRYSGRTQKQLVDYFKDSGMKRIPYERRHSKTHTSVRALTADLPKQSISFPEGLRTPASPSSANAFYSLSPSTLVPSGLPEFKDSSSSLTDPQVSYVKSPAAERRSGAVAGGPDTPSAQPLGPPALQPGPGLSTKSPQPSPSSRKSPLSLSPAFQVPLGPAEQGSSPLLSPVLSDAGGAGMDCEEPRHKRVPADEAYFIVKEILATERTYLKDLEVITVWFRSAVVKEDAMPATLMTLLFSNIDPIYEFHRGFLREVEQRLALWEGPSKAHTKGSHQRIGDILLRNMRQLKEFTSYFQRHDEVLTELEKATKRCKKLEAVYKEFELQKVCYLPLNTFLLKPIQRLLHYRLLLRRLCGHYSPGHHDYADCHDALKAITEVTTTLQHILIRLENLQKLTELQRDLVGIENLIAPGREFIREGCLHKLTKKGLQQRMFFLFSDMLLYTSKGVAGTSHFRIRGLLPLQGMLVEESDNEWSVPHCFTIYAAQKTIVVAASTRLEKEKWMLDLNSAIQAAKSGGDTAPALPGRTVCTRPPRSPNEVSLEQESEDDARGVRSSLEGHGQHRANTTMHVCWYRNTSVSRADHSAAVENQLSGYLLRKFKNSHGWQKLWVVFTNFCLFFYKTHQDDYPLASLPLLGYSVSIPREADGIHKDYVFKLQFKSHVYFFRAESKYTFERWMEVIQGASSSAGRAPSIVQDGPQPSSGLEGMVRGKEE
B3: VMP1 (protein, UniProt Q96GC9 2-406, looked up)
Vacuole membrane protein 1: AENGKNCDQRRVAMNKEHHNGNFTDPSSVNEKKRREREERQNIVLWRQPLITLQYFSLEILVILKEWTSKLWHRQSIVVSFLLLLAVLIATYYVEGVHQQYVQRIEKQFLLYAYWIGLGILSSVGLGTGLHTFLLYLGPHIASVTLAAYECNSVNFPEPPYPDQIICPDEEGTEGTISLWSIISKVRIEACMWGIGTAIGELPPYFMARAARLSGAEPDDEEYQEFEEMLEHAESAQDFASRAKLAVQKLVQKVGFFGILACASIPNPLFDLAGITCGHFLVPFWTFFGATLIGKAIIKMHIQKIFVIITFSKHIVEQMVAFIGAVPGIGPSLQKPFQEYLEAQRQKLHHKSEMGTPQGENWLSWMFEKLVVVMVCYFILSIINSMAQSYAKRIQQRLNSEEKTK
B4: MICU1 (protein, UniProt Q9BPX6 34-476, looked up)
Calcium uptake protein 1, …: MMVAFLGASAVTASTGLLWKRAHAESPPCVDNLKSDIGDKGKNKDEGDVCNHEKKTADLAPHPEEKKKKRSGFRDRKVMEYENRIRAYSTPDKIFRYFATLKVISEPGEAEVFMTPEDFVRSITPNEKQPEHLGLDQYIIKRFDGKKISQEREKFADEGSIFYTLGECGLISFSDYIFLTTVLSTPQRNFEIAFKMFDLNGDGEVDMEEFEQVQSIIRSQTSMGMRHRDRPTTGNTLKSGLCSALTTYFFGADLKGKLTIKNFLEFQRKLQHDVLKLEFERHDPVDGRITERQFGGMLLAYSGVQSKKLTAMQRQLKKHFKEGKGLTFQEVENFFTFLKNINDVDTALSFYHMAGASLDKVTMQQVARTVAKVELSDHVCDVVFALFDCDGNGELSNKEFVSIMKQRLMRGLEKPKDMGFTRLMQAMWKCAQETAWDFALPKQ
B5: D2HGDH (protein, UniProt Q8N465 14-521, looked up)
D-2-hydroxyglutarate …: LRGAPGAAGSWGRPVGPLARRGCCSAPGTPEVPLTRERYPVRRLPFSTVSKQDLAAFERIVPGGVVTDPEALQAPNVDWLRTLRGCSKVLLRPRTSEEVSHILRHCHERNLAVNPQGGNTGMVGGSVPVFDEIILSTARMNRVLSFHSVSGILVCQAGCVLEELSRYVEERDFIMPLDLGAKGSCHIGGNVATNAGGLRFLRYGSLHGTVLGLEVVLADGTVLDCLTSLRKDNTGYDLKQLFIGSEGTLGIITTVSILCPPKPRAVNVAFLGCPGFAEVLQTFSTCKGMLGEILSAFEFMDAVCMQLVGRHLHLASPVQESPFYVLIETSGSNAGHDAEKLGHFLEHALGSGLVTDGTMATDQRKVKMLWALRERITEALSRDGYVYKYDLSLPVERLYDIVTDLRARLGPHAKHVVGYGHLGDGNLHLNVTAEAFSPSLLAALEPHVYEWTAGQQGSVSAEHGVGFRKRDVLGYSKPPGALQLMQQLKALLDPKGILNPYKTLPSQA
B6: MFN2 (protein, UniProt O95140 1-757, looked up)
Mitofusin-2: MSLLFSRCNSIVTVKKNKRHMAEVNASPLKHFVTAKKKINGIFEQLGAYIQESATFLEDTYRNAELDPVTTEEQVLDVKGYLSKVRGISEVLARRHMKVAFFGRTSNGKSTVINAMLWDKVLPSGIGHTTNCFLRVEGTDGHEAFLLTEGSEEKRSAKTVNQLAHALHQDKQLHAGSLVSVMWPNSKCPLLKDDLVLMDSPGIDVTTELDSWIDKFCLDADVFVLVANSESTLMQTEKHFFHKVSERLSRPNIFILNNRWDASASEPEYMEEVRRQHMERCTSFLVDELGVVDRSQAGDRIFFVSAKEVLNARIQKAQGMPEGGGALAEGFQVRMFEFQNFERRFEECISQSAVKTKFEQHTVRAKQIAEAVRLIMDSLHMAAREQQVYCEEMREERQDRLKFIDKQLELLAQDYKLRIKQITEEVERQVSTAMAEEIRRLSVLVDDYQMDFHPSPVVLKVYKNELHRHIEEGLGRNMSDRCSTAITNSLQTMQQDMIDGLKPLLPVSVRSQIDMLVPRQCFSLNYDLNCDKLCADFQEDIEFHFSLGWTMLVNRFLGPKNSRRALMGYNDQVQRPIPLTPANPSMPPLPQGSLTQEEFMVSMVTGLASLTSRTSMGILVVGGVVWKAVGWRLIALSFGLYGLLYVYERLTWTTKAKERAFKRQFVEHASEKLQLVISYTGSNCSHQVQQELSGTFAHLCQQVDVTRENLEQEIAAMNKKIEVLDSLQSKAKLLRNKAGWLDSELNMFTHQYLQPSR
B7: CYB5R3 (protein, UniProt P00387 2-301, looked up)
NADH-cytochrome b5 reductase 3: GAQLSTLGHMVLFPVWFLYSLLMKLFQRSTPAITLESPDIKYPLRLIDREIISHDTRRFRFALPSPQHILGLPVGQHIYLSARIDGNLVVRPYTPISSDDDKGFVDLVIKVYFKDTHPKFPAGGKMSQYLESMQIGDTIEFRGPSGLLVYQGKGKFAIRPDKKSNPIIRTVKSVGMIAGGTGITPMLQVIRAIMKDPDDHTVCHLLFANQTEKDILLRPELEELRNKHSARFKLWYTLDRAPEAWDYGQGFVNEEMIRDHLPPPEEEPLVLMCGPPPMIQYACLPNLDHVGHPTERCFVF
B8: JPH1 (protein, UniProt Q9HDC5 1-661, looked up)
Junctophilin-1: MTGGRFDFDDGGTYCGGWEEGKAHGHGICTGPKGQGEYSGSWSHGFEVVGGYTWPSGNTYQGYWAQGKRHGLGVETKGKWMYRGEWSHGFKGRYGVRQSLCTPARYEGTWSNGLQDGYGVETYGDGGTYQGQWAGGMRHGYGVRQSVPYGMATVIRSPLRTSLASLRSEQSNGSVLHDAAAAADSPAGTRGGFVLNFHADAELAGKKKGGLFRRGSLLGSMKLRKSESKSSISSKRSSVRSDAAMSRISSSDANSTISFGDVDCDFCPVEDHVDATTTETYMGEWKNDKRNGFGVSERSNGMKYEGEWANNKRHGYGCTVFPDGSKEEGKYKNNILVRGIRKQLIPIRHTKTREKVDRAIEGAQRAAAMARTKVEIANSRTAHARAKADAADQAALAARQECDIARAVARELSPDFYQPGPDYVKQRFQEGVDAKENPEEKVPEKPPTPKESPHFYRKGTTPPRSPEASPKHSHSPASSPKPLKKQNPSSGARLNQDKRSVADEQVTAIVNKPLMSKAPTKEAGAVVPQSKYSGRHHIPNPSNGELHSQYHGYYVKLNAPQHPPVDVEDGDGSSQSSSALVHKPSANKWSPSKSVTKPVAKESKAEPKAKKSELAIPKNPASNDSCPALEKEANSGPNSIMIVLVMLLNIGLAILFVHFLT
B9: SLC25A40 (protein, UniProt Q8TBP6 1-338, looked up)
Mitochondrial glutathione …: MDPETRGQEIIKVTPLQQMLASCTGAILTSVIVTPLDVVKIRLQAQNNPLPKGKCFVYSNGLMDHLCVCEEGGNKLWYKKPGNFQGTLDAFFKIIRNEGIKSLWSGLPPTLVMAVPATVIYFTCYDQLSALLRSKLGENETCIPIVAGIVARFGAVTVISPLELIRTKMQSKKFSYVELHRFVSKKVSEDGWISLWRGWAPTVLRDVPFSAMYWYNYEILKKWLCEKSGLYEPTFMINFTSGALSGSFAAVATLPFDVVKTQKQTQLWTYESHKISMPLHMSTWIIMKNIVAKNGFSGLFSGLIPRLIKIAPACAIMISTYEFGKAFFQKQNVRRQQY
B10: MPDU1 (protein, UniProt O75352 2-247, looked up)
Mannose-P-dolichol …: AAEADGPLKRLLVPILLPEKCYDQLFVQWDLLHVPCLKILLSKGLGLGIVAGSLLVKLPQVFKILGAKSAEGLSLQSVMLELVALTGTMVYSITNNFPFSSWGEALFLMLQTITICFLVMHYRGQTVKGVAFLACYGLVLLVLLSPLTPLTVVTLLQASNVPAVVVGRLLQAATNYHNGHTGQLSAITVFLLFGGSLARIFTSIQETGDPLMAGTFVVSSLCNGLIAAQLLFYWNAKPPHKQKKAQ

Test system: BAF complex subunits and histone proteins
Assay: Mass spectrometry proteomics of purified HA-SS18 WT and HA-SS18-SSX1 complexes (Tables 5A-5E)
Set-up: species or system human
Conditions: HA-SS18SSX1_NE_peptides: protein co-purified with HA-SS18-SSX1 BAF complexes from soluble nuclear extract (NE), HEK-293T cells

Row | Molecule | Total (peptides) | Unique (peptides)
1 | B1 | 1 | 1
2 | B2 | 1 | 1
3 | B3 | 1 | 1
4 | B4 | 1 | 1
5 | B5 | 1 | 1
6 | B6 | 1 | 1
7 | B7 | 1 | 1
8 | B8 | 1 | 1
9 | B9 | 1 | 1
10 | B10 | 1 | 1

Same assay, conditions: HA-SS18WT_CHR_peptides: protein identified in HA-SS18 WT BAF complex purification from nuclease-treated solubilized chromatin (CHR), HEK-293T

Row | Molecule | Total (total peptides) | Unique (unique peptides)
11 | B1 | 1 | 1

Same assay, conditions: HA-SS18WT_NE_peptides: HA-SS18 WT complexes purified from nuclear extract (NE), HEK-293T; label = protein identified (Gene Symbol)

Row | Molecule | Total (peptides) | Unique (peptides)
12 | B5 | 2 | 2

Same assay, conditions: HA-SS18WT_NE_peptides: proteins co-purified with HA-SS18 WT from nuclear extract (NE), HEK-293T

Row | Molecule | Total (peptides) | Unique (peptides)
13 | B1 | 1 | 1
14 | B3 | 2 | 2
15 | B8 | 1 | 1
16 | B9 | 1 | 1
17 | B10 | 1 | 1
